According to patent publication US20260132219A1:
Numbering of substitutions follows the chain as printed. These are yes or no findings as the source states them, for the method shown. Some binding calls cover weakened binding; strength is not graded here.

Amino acid sequences for entries named in this document (tags omitted). A change or cut given only in a name is not applied to a line headed by its entry. Chains listed by the source or under a name are the forms on record and can include a tag or linker.
UniProt P21860: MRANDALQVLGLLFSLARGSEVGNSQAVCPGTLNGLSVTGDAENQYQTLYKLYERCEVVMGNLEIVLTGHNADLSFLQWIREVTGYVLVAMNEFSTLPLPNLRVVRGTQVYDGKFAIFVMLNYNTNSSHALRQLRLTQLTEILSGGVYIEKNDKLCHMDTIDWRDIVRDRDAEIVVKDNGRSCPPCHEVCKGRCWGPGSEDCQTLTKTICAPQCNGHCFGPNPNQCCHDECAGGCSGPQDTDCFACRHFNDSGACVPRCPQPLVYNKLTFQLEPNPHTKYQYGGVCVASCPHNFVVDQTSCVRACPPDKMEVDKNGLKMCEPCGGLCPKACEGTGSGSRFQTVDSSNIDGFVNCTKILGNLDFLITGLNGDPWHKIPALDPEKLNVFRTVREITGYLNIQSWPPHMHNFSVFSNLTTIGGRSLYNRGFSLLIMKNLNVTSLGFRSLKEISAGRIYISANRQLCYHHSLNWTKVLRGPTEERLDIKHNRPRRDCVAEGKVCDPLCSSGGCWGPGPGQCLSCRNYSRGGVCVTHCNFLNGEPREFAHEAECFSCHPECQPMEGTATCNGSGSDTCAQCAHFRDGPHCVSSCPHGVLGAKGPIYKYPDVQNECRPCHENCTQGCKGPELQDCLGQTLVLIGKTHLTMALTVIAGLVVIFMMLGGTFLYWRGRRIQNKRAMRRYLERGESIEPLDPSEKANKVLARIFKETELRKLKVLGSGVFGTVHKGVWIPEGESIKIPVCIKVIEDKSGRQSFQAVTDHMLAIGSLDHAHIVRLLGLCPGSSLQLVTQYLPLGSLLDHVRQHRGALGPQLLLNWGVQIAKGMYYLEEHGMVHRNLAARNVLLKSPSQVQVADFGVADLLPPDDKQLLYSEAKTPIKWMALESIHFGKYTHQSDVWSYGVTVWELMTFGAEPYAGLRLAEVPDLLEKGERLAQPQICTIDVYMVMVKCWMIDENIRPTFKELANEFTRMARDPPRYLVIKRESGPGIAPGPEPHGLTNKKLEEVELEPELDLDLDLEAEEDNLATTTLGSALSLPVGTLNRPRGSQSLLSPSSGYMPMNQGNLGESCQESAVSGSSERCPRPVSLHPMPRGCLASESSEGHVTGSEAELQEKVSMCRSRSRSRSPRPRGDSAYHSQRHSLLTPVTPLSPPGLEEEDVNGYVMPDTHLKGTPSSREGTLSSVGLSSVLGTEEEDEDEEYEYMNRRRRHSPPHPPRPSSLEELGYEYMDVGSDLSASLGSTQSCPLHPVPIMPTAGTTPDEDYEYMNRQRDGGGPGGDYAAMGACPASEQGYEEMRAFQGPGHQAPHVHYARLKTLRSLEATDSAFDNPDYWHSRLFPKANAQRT
cynomolgus macaque HER3 (Sino Biological Inc.) (G7PIG5, form named): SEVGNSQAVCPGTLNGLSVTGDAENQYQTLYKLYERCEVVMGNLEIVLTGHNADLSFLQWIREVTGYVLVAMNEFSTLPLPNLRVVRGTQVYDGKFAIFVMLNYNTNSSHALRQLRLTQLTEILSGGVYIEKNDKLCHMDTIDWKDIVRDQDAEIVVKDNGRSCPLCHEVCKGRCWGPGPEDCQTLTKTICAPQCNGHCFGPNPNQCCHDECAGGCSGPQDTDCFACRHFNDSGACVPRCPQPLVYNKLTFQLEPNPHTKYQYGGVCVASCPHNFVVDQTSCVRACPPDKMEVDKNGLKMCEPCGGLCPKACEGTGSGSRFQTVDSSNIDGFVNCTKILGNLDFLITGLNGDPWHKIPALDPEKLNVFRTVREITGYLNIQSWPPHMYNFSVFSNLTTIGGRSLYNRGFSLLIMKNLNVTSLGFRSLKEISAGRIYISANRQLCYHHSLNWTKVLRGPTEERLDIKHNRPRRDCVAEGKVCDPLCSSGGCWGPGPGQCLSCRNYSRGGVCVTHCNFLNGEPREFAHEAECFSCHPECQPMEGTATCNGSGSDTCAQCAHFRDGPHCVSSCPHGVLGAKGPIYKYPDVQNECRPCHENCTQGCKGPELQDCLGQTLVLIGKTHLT

How the values were obtained:
[1] = target: His-tagged human HER3 (human) (UniProt P21860); test: BLI (Octet QK384), antibody on AHC tips
[2] = target: cynomolgus macaque HER3 (Sino Biological Inc.) (cynomolgus macaque) (UniProt G7PIG5); test: ELISA, target polypeptide coated

B1: anti-HER3 clone 10D1_c85o2 IgG1 (antibody, V domains shown)
VH: DVQLQEWGAGLLKPSETLSLTCAVTGYSITSGYSWHWIRQFPGKGLEWIGSIRYSGGTNYNPSLKSRITISRDTSKNQFSLKLGSVTAADTAVYFCARGTTAPRYPFDYWGQGTLVTVSS
VL: DIVMTQSPSSLSASVGDRVTITCKASQIVGSNVAWYQQKPGKSPKPLIYSARYQYSGVPFRFSGSGSGTDFTLTISSLQPEDVATYYCQQYSSHPLTFGPGTKVEIKR
[1]
  binding: binds

B2: 10D1F.FcA (anti-HER3 clone 10D1_c89 IgG1) (antibody, V domains shown)
VH: QVQLQESGPGLVKPSQTLSLTCTVSGYSITSGYSWHWIRQHPGKGLEWIGSIRYSGGTDYNPSLKSLVTISADTSKNQFSLKLSSVTAADTAVYYCARMTTAPWYPFDYWGQGTTVTVSS
VL: B1 VL with V3Q, L11V, S43A, K45E, R52S, Q54L, F60S, V83F, P100Q, V104L
[2]
  binding: binds
